Results: patent US20210340205A1
These are yes or no findings as the source states them, for the method shown. For some of these results: In cells and extracts the contact can be indirect. Some entries that bind do so weakly or less than the wild type. Sequences can lack the tags named with a protein.

Legend:
[1] = biological target: Human cRET(ECD)-Fc (human); test: MSD plate assay, cRET(ECD)-Fc coated; biotinylated anti-6xHis mAb and streptavidin sulfo-tag
[2] = biological target: Human cRET(ECD)-Fc (human); test: MSD plate assay, cRET(ECD)-Fc coated, streptavidin sulfo-tag detection
[3] = biological target: Human GFRAL(ECD)-Fc (human); test: co-expression in HEK293 cells, co-purification on Protein A, SDS-PAGE

Row | binding [1] | binding [2] | binding [3] | Binder
1 | binds | binds |  | His-GDF15(biotin)/GFRAL(ECD)-His complex (protein, biotinylated (site not stated)) chain 1: HHHHHHGSGGARNGDHCPLGPGRCCRLHTVRASLEDLGWADWVLSPREVQVTMCIGACPSQFRAANMHAQIKTSLHRLKPDTVPAPCCVPASYNPMVLIQKTDTGVSLQTYDDLLAKDCHCI chain 2: QTNNCTYLREQCLRDANGCKHAWRVMEDACNDSDPGDPCKMRNSSYCNLSIQYLVESNFQFKECLCTDDFYCTVNKLLGKKCINKSDNVKEDKFKWNLTTRSHHGFKGMWSCLEVAEACVGDVVCNAQLASYLKACSANGNPCDLKQCQAAIRFFYQNIPFNIAQMLAFCDCAQSDIPCQQSKEALHSKTCAVNMVPPPTCLSVIRSCQNDELCRRHYRTFQSKCWQRVTRKCHEDENCISTLSKQDLTCSGSDDCKAAYIDILGTVLQVQCTCRTITQSEESLCKIFQHMLHRKSCFNYPTLSNVKGMALYTRKHANKITLTGFHSPFNGEGSHHHHHH
2 |  |  | binds | Human His-GDF15 (ligand) HHHHHHGSGGARNGDHCPLGPGRCCRLHTVRASLEDLGWADWVLSPREVQVTMCIGACPSQFRAANMHAQIKTSLHRLKPDTVPAPCCVPASYNPMVLIQKTDTGVSLQTYDDLLAKDCHCI
3 |  | binds |  | His-GDF15(biotin)/GFRAL(D2D3)-App complex (protein, biotinylated (site not stated)) chain 1: HHHHHHGSGGARNGDHCPLGPGRCCRLHTVRASLEDLGWADWVLSPREVQVTMCIGACPSQFRAANMHAQIKTSLHRLKPDTVPAPCCVPASYNPMVLIQKTDTGVSLQTYDDLLAKDCHCI chain 2: GFKGMWSCLEVAEACVGDVVCNAQLASYLKACSANGNPCDLKQCQAAIRFFYQNIPFNIAQMLAFCDCAQSDIPCQQSKEALHSKTCAVNMVPPPTCLSVIRSCQNDELCRRHYRTFQSKCWQRVTRKCHEDENCISTLSKQDLTCSGSDDCKAAYIDILGTVLQVQCTCRTITQSEESLCKIFQHMLHRKSCFNYPTLSNVKGMALYTRKGSEFRHDS
